No constants are given. Whether binding was seen depends on the method and setting.
Biological target: KLC2 TPR domain (kinesin light chain 2 tetratricopeptide repeat domain) (human) (UniProt Q9H0B6)
Experiment: condition: peptide solution 1-3 mM injected into 60-130 uM KLC2-TPR; ITC; peptide (1-3 mM) in the syringe injected into 60-130 uM KLC1-TPR or KLC2-TPR (or mutant) in the cell; 25 C; 20 mM Bis-Tris pH 6.5, 500 mM NaCl, 0.5 mM TCEP; one-site binding model; both purified

Protein sequences, listed by entry. Tags and fused reporters are not part of them. Residues count along the entry.
UniProt Q9H0B6, residues 217-480: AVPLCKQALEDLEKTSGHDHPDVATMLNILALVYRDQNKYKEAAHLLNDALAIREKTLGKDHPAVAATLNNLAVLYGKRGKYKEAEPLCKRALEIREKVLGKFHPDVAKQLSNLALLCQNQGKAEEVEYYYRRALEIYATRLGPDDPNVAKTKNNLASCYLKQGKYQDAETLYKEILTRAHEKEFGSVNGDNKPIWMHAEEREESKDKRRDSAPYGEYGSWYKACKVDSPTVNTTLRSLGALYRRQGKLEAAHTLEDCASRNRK

- binding: no binding
Binder: EYTCPTEDIYLE (N-terminal acetyl (Ac-); free C-terminal carboxylate (-COOH)) [JIP1 peptide (C-terminal residues of JNK-interacting protein 1)]

From publication PMC3314626, “Crystal Structures of the Tetratricopeptide Repeat Domains of Kinesin Light Chains: Insight into Cargo Recognition Mechanisms” (PLoS ONE, 2012)
